# In publication PMC10804494 (BMC Complementary Medicine and Therapies, 2024):
# Where two headings read alike, the source gives them in different places.
# Columns and labels:
# [1] = test system: highly pathogenic avian influenza A/chicken/Egypt/N12640A/2016 (H5N1); experiment: microbe, parasite or virus in culture; assay type: cell-based, influenza A/H5N1 virus
# [2] = test system: seasonal influenza A/Egypt/NRC098/2019(H1N1); experiment: microbe, parasite or virus in culture; assay type: cell-based, influenza A/H1N1 virus
compound,measurement,setting,value
"COc1cc2c(c(OC)c1OC)-c1ccc(OC)c(=O)cc1[C@@H](NC(C)=O)CC2 [Colchicine, (S)-N-(1,2,3,10-tetramethoxy-9-oxo-5,6,7,9-tetrahydrobenzo[a]heptalen-7-yl)acetamide]",IC50,[1],0.111 µg/mL
same,IC50,"[1]; Influenza A virus, H5N1, MDCK, 72 h",0.076 µg/mL
same,IC50,[2],0.326 µg/mL
same,IC50,"[2]; Influenza A virus, H1N1, MDCK, 72 h",0.65 µg/mL
